Test system: total HDAC activity from the H1975 nuclear extract
Settings: 10 μM (highest concentration tested)

## Fc1ccc(C(c2ccc(F)cc2)N2CCN(C/C=C/c3ccccc3)CC2)cc1 [flunarizine]
  inhibition of total HDAC activity: ~75%
